Test results reported in PubChem BioAssay AID504847 (National Center for Advancing Translational Sciences (NCATS), 2011).
Several values for one entry are separate records, joined by “and”; a condition that tells them apart may be missing. Equal values may be shown once. The whole screen tested about 400,000 compounds, of which about 3,700 (0.93%) were called active. The shares of active, inactive and inconclusive entries below differ from those in the screen. The call rests on the fitted dose curve; in most records, active means well fitted inhibition curve with a large enough effect; inconclusive means small, poorly fitted or top-dose-only effect, or another doubt; inactive means no such curve, though single readings can be large or run the other way. A potency beside an inconclusive call is a rough fit, not a confirmed value.

Chains of the proteins cited; added tags and fusions are not shown.
UniProt P11473, whole entry, looked up: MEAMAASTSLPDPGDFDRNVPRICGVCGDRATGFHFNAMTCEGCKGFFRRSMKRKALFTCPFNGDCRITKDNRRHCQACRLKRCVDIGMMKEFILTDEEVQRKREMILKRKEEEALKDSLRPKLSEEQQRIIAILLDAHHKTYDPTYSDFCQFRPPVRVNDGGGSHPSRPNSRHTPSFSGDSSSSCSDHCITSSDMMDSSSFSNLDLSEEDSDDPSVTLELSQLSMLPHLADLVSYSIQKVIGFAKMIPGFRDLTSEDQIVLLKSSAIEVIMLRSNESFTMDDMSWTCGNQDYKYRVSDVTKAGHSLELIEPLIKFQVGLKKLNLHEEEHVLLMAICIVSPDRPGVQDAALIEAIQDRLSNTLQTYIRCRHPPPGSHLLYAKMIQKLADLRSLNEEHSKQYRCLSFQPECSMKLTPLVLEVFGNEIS

target: Vitamin D3 receptor (Homo sapiens) (UniProt P11473); experiment: Inhibitors of the vitamin D receptor (VDR): qHTS; details: VDR-SRC2-3 peptide fluorescence polarization, 2 h; max response, negative = inhibition: stronger effect = lower value
How it was run: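 Fluorescence polarization assay measuring small-molecule disruption of VDR binding to the coregulator peptide SRC2-3. Compounds were pin-transferred (23 nl) into the reagent mix and incubated 2 h at room temperature before reading.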
On the % scale 0 is the no-effect control and ±100 the full control effect; potency means the concentration at half of the fitted maximal effect.

Compound	Potency	max response, negative = inhibition
COc1ccc(C(=O)OCc2cc(C)ccc2C)cc1S(=O)(=O)N1CCCC1	inconclusive: 44.7 µM [inhibitor, partial curve]	–
COc1ccc(C(=O)CSC#N)cc1OC	inconclusive: 79.4 µM [inhibitor, single point]	–
Cc1nn(CC(O)CN2c3ccccc3Sc3ccccc32)c(C)c1Br (stereo not drawn)	inconclusive: 22.4 µM [inhibitor, single point]	–
Cc1ccc(Sc2cc(NCCCO)c([N+](=O)[O-])c3nonc23)cc1	inconclusive: 20 µM [inhibitor, partial curve]	–
COc1ccc(NC(C)=O)cc1NC(C)C(=O)Nc1ccc(S(=O)(=O)N2CCCCC2)cc1 (stereo not drawn)	–	inactive: -4.73%
Cc1cccc(NCCC(=O)c2ccc([N+](=O)[O-])cc2)c1C	inconclusive: 50.1 µM [inhibitor, partial curve, poor fit]	–
CCOc1cc(C(c2c(C)[nH][nH]c2=O)c2c(C)[nH][nH]c2=O)ccc1OS(=O)(=O)c1ccccc1	inconclusive: 44.7 µM [inhibitor, partial curve, poor fit]	–
CCS(=O)(=O)N1CCC2(CC1)OC(=O)C(C)=C2C(=O)NCc1ccc(OC)c(OC)c1	–	inactive: 7.55%
CCOc1ccc(/C=C2\SC(=S)N(CCCC(=O)NCCCN3CCOCC3)C2=O)cc1	inconclusive: 89.1 µM [inhibitor, partial curve, poor fit]	–
CC(=O)Nc1ccc2c(c1)c1ccccc1n2C(C)=O	inconclusive: 79.4 µM [inhibitor, single point]	–
CC1(C)OC(=O)C2(Cc3ccccc3N3CCC(c4ccccc4)CC32)C(=O)O1 (stereo not drawn)	–	inactive: -12.2%
CCOc1ccc(NC(=O)CCNS(=O)(=O)c2ccc3c(c2)CC(C)N3C(C)=O)cc1 (stereo not drawn)	inconclusive: 39.8 µM [inhibitor, single point]	–
O=[N+]([O-])c1ccc(N/N=C2/CCCCC2c2ccccn2)c([N+](=O)[O-])c1 (stereo not drawn)	inconclusive: 70.8 µM [inhibitor, partial curve, poor fit]	–
COc1ccc(-c2nnc(SCC(=O)N3CCN(c4ccccc4)CC3)o2)cc1OC	inconclusive: 89.1 µM [inhibitor, single point]	–
CCCN1CCc2c(sc(NC(=S)NC(=O)c3ccccc3)c2C#N)C1	inconclusive: 100 µM [inhibitor, single point]	–
CCCCN(CC)CCNC(=O)CN1C(=O)COc2ccc(S(=O)(=O)N3CCOCC3)cc21	–	inactive: 7.44%
Cc1cc(C)c2c(NC(=S)Nc3ccccc3)n[nH]c2n1	inconclusive: 89.1 µM [inhibitor, single point]	–
O=C(CCc1nc2ccccc2c(=O)[nH]1)Nc1ccc(F)cc1	–	inactive: -7.49%
Cc1csc(NC(=O)CSc2nc3[nH]ncc3c(=O)[nH]2)n1	inconclusive: 12.6 µM [inhibitor, partial curve]	–
O=[N+]([O-])c1c(NCCCO)cc(Sc2ccc(Cl)cc2)c2nonc12	inconclusive: 89.1 µM [inhibitor, partial curve, poor fit]	–
CN1CCN(C(c2ccc(Cl)cc2)c2cc(Cl)c3cccnc3c2O)CC1 (stereo not drawn)	active: 44.7 µM	–
CC(=O)NC(c1ccco1)c1cc(Cl)c2ccccc2c1O (stereo not drawn)	–	inactive: -6.34%

Compound	Potency	max response, negative = inhibition
O=C(O)COc1ccccc1C(Nc1cccnc1)c1cc(Cl)c2cccnc2c1O (stereo not drawn)	active: 22.4 µM	–
CCC(C)[C@@H](C(=O)Nc1ccc2c(c1)OCO2)N1Cc2ccccc2C1=O (stereo partly drawn)	inconclusive: 63.1 µM [inhibitor, partial curve, poor fit]	–
Cc1cccc(CN(C(=S)Nc2c(C)cccc2C)c2cccnc2)c1	inconclusive: 79.4 µM [inhibitor, partial curve, poor fit]	–
CCCNC(=O)c1nnsc1S(=O)(=O)c1ccc(Cl)cc1	inconclusive: 15.8 µM [inhibitor, partial curve, poor fit]	–
Cn1c(N2CCOCC2)nc(-c2ccccc2)c1-c1ccccc1	–	inactive: 11%
Cc1ccc(NC(=S)NNC(=S)Nc2ccc(C)cc2C)cc1	active: 44.7 µM	–
Cc1nc(SCc2ccccc2)c2ccsc2n1	inconclusive: 89.1 µM [inhibitor, single point]	–
Cc1ccc(-n2c(N)c(C(=O)N3CCOCC3)sc2=S)cc1	active: 89.1 µM	–
O=C1/C(=C\c2cccnc2)Sc2ccccc21	inconclusive: 31.6 µM [inhibitor, full curve, poor fit]	–
COc1ccc(-c2cc(C(F)(F)F)nc(S(=O)(=O)CCCC(=O)Nc3cc(C)on3)n2)cc1OC	inconclusive: 50.1 µM [inhibitor, partial curve]	–
Cc1nn(-c2ccccc2)c(C)c1/C=N/NC(=O)c1ccc(F)cc1	inconclusive: 31.6 µM [inhibitor, partial curve, poor fit]	–
NNc1nc2ccc(F)cc2s1	inconclusive: 79.4 µM [inhibitor, single point]	–
CCC(C)n1c(OC)nc2c1c(=O)n(C)c(=O)n2C (stereo not drawn)	inconclusive: 31.6 µM [inhibitor, single point]	–
COc1ccc(/C=C2\CCc3c2nc2ccccc2c3C(=O)O)cc1OC	–	inactive: -11.4%
NCCC(=O)c1ccccc1N	inconclusive: 44.7 µM [inhibitor, partial curve]	–
O=C(COC(=O)CNC(=O)c1ccc(Br)o1)Nc1ccccc1OC(F)F	–	inactive: -13.9%
CSc1ccc(/C=N/NC(=O)CN2CCN(Cc3ccccc3)CC2)cc1	–	inactive: -6.06%
CCOC(=O)C1=C[C@@]2(CC)CCCN3CCc4c(n1c1ccccc41)[C@H]32	inconclusive: 39.8 µM [inhibitor, partial curve]	–
O=C1C(=O)N(c2ccccn2)C(c2ccc(F)cc2)/C1=C(/O)c1ccc(Br)cc1 (stereo not drawn)	–	inactive: -13%
CC1CCCCC1NC(=O)CSc1nncs1 (stereo not drawn)	–	inactive: 1.18%
COC(=O)c1c(C)c2c(c(C)c1O)OC(=O)c1c(C)c(Cl)c(O)c(Cl)c1O2	inconclusive: 79.4 µM [inhibitor, single point] and inconclusive: 44.7 µM [inhibitor, partial curve]	–

Gathered by group: the entries above with a Cl atom
Compound	Potency	max response, negative = inhibition
O=[N+]([O-])c1c(NCCCO)cc(Sc2ccc(Cl)cc2)c2nonc12	inconclusive: 89.1 µM [inhibitor, partial curve, poor fit]	–
CN1CCN(C(c2ccc(Cl)cc2)c2cc(Cl)c3cccnc3c2O)CC1 (stereo not drawn)	active: 44.7 µM	–
CC(=O)NC(c1ccco1)c1cc(Cl)c2ccccc2c1O (stereo not drawn)	–	inactive: -6.34%
O=C(O)COc1ccccc1C(Nc1cccnc1)c1cc(Cl)c2cccnc2c1O (stereo not drawn)	active: 22.4 µM	–
CCCNC(=O)c1nnsc1S(=O)(=O)c1ccc(Cl)cc1	inconclusive: 15.8 µM [inhibitor, partial curve, poor fit]	–
COC(=O)c1c(C)c2c(c(C)c1O)OC(=O)c1c(C)c(Cl)c(O)c(Cl)c1O2	inconclusive: 79.4 µM [inhibitor, single point] and inconclusive: 44.7 µM [inhibitor, partial curve]	–
